According to article PMC8410792:
Results are given in words; binding and its absence hold for the method and conditions named. Binding seen in cells or lysates may run through a third protein. Some binding calls cover weakened binding; strength is not graded here. For some of these results: Where a sequence is shown, tags or fusion partners need not be part of it. Blank lines part the entries; values can stand above or below the molecule they belong to.

Chains of the proteins cited; added tags and fusions are not shown.
UniProt P01106: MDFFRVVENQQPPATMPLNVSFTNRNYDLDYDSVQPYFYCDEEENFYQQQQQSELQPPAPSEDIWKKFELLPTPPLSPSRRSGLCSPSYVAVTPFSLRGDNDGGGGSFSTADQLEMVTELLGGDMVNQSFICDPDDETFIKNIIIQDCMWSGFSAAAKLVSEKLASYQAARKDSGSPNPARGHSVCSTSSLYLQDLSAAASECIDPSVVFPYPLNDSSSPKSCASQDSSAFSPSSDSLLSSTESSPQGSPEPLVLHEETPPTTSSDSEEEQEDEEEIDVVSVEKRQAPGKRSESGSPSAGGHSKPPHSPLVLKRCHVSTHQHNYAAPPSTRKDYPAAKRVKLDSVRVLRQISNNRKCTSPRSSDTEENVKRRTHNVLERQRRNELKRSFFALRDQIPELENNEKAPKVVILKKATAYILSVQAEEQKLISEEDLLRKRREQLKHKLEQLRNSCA
UniProt P49841: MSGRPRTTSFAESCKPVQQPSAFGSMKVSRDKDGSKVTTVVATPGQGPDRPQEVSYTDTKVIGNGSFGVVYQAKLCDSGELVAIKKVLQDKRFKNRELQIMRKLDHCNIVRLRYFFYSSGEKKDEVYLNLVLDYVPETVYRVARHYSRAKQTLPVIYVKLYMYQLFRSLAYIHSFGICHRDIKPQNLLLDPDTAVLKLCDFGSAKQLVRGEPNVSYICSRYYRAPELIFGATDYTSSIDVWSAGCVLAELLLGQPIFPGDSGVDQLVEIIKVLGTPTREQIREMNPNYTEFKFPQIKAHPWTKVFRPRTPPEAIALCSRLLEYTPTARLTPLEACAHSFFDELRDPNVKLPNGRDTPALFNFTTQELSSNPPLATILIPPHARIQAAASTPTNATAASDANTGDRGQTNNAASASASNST

Tests used:
[1] = target: c-Myc (human (endogenous in SF188 and GBM22)) (UniProt P01106); test: co-IP; endogenous proteins; SF188 and GBM22 lysates (100 mM NaCl, 50 mM Tris-HCl, 0.5% NP-40) immunoprecipitated with IgG or c-Myc antibody on Dynabeads Protein G overnight at 4 °C, western blot; SF188 also vehicle-treated or treated with increasing dosages of alisertib
HA-tagged AURKA = target: T1, HA-tagged AURKA (UniProt O14965); test: co-IP; SF188 and GBM22 cells transfected with HA-tagged AURKA; endogenous c-Myc and GSK3β detected
T1 sequence: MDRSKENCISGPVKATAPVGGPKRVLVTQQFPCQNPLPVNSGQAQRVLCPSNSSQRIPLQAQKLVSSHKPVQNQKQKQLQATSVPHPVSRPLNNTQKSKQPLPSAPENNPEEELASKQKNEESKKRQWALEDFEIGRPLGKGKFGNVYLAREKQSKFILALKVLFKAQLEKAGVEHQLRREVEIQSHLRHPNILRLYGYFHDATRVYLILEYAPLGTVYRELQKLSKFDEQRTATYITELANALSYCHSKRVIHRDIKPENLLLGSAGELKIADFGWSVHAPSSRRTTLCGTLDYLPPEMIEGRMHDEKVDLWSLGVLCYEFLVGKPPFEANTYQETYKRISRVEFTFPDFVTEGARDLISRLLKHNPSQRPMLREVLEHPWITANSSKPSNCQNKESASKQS

[2] = target: c-Myc (human (endogenous in SF188 and GBM22)), P01106; test: proximity ligation; in situ PLA (Duolink) on fixed, permeabilised SF188 and GBM22 cells with paired primary antibodies to the endogenous proteins; settings: remark: other sources report otherwise
[3] = target: c-Myc (human (endogenous in SF188 and GBM22)), P01106; test: co-IP; endogenous proteins; SF188 and GBM22 lysates (100 mM NaCl, 50 mM Tris-HCl, 0.5% NP-40) immunoprecipitated with IgG or c-Myc antibody on Dynabeads Protein G overnight at 4 °C, western blot; SF188 also vehicle-treated or treated with increasing dosages of alisertib; settings: remark: other sources report otherwise

binding [1]: binds
Molecule: GSK3β (from UniProt P49841 1-420) (enzyme)

binding (HA-tagged AURKA): binds
Molecule: c-Myc (from UniProt P01106 1-454) (other; other documents disagree on this pair)

binding [2]: binds
binding [3]: binds
B1: Aurora kinase A, O14965 1-403 (enzyme)
chain: T1 sequence
